Data taken from PMC4336758.
No constants are given. Whether binding was seen depends on the method and setting. Some entries that bind do so weakly or less than the wild type.

Target: Serum thymidine kinase 1 (STK1) (human (endogenous in serum)) (UniProt P04183)
Test: SEC; 200 uL serum diluted 1:1 in 0.01 M Hepes, 0.15 M NH4Cl, 0.02% NaN3; Superose 12 column, 0.4 mL/min; 24 fractions tested for TK1 activity and, by immunoaffinity/Western blotting, for the 25 kDa TK1 polypeptide; sera of MDS, breast cancer and prostate cancer patients and of blood donors

B1: Serum thymidine kinase 1 (STK1) (protein, UniProt P04183 1-234)
chain: MSCINLPTVLPGSPSKTRGQIQVILGPMFSGKSTELMRRVRRFQIAQYKCLVIKYAKDTRYSSSFCTHDRNTMEALPACLLRDVAQEALGVAVIGIDEGQFFPDIVEFCEAMANAGKTVIVAALDGTFQRKPFGAILNLVPLAESVVKLTAVCMECFREAAYTKRLGTEKEVEVIGGADKYHSVCRLCYFKKASGQPAGPDNKENCPVPGKPGEAVAARKLFAPQQILQCSPAN
  binding: binds
